## Library screen at single concentrations

By UniProt entry, the sequences of proteins in these tests, tags left out.
UniProt P9WPC5, whole entry: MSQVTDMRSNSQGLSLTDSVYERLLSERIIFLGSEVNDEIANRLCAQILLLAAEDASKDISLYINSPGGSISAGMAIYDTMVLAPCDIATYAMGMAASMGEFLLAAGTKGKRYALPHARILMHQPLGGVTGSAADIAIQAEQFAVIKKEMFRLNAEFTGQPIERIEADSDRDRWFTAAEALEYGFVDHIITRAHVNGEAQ
UniProt P9WPC3, whole entry partner: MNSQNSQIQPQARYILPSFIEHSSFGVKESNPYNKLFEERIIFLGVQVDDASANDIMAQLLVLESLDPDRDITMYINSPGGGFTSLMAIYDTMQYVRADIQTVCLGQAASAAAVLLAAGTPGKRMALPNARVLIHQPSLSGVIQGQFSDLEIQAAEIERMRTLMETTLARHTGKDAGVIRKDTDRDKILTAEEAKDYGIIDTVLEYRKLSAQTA
UniProt I6X8D2, whole entry: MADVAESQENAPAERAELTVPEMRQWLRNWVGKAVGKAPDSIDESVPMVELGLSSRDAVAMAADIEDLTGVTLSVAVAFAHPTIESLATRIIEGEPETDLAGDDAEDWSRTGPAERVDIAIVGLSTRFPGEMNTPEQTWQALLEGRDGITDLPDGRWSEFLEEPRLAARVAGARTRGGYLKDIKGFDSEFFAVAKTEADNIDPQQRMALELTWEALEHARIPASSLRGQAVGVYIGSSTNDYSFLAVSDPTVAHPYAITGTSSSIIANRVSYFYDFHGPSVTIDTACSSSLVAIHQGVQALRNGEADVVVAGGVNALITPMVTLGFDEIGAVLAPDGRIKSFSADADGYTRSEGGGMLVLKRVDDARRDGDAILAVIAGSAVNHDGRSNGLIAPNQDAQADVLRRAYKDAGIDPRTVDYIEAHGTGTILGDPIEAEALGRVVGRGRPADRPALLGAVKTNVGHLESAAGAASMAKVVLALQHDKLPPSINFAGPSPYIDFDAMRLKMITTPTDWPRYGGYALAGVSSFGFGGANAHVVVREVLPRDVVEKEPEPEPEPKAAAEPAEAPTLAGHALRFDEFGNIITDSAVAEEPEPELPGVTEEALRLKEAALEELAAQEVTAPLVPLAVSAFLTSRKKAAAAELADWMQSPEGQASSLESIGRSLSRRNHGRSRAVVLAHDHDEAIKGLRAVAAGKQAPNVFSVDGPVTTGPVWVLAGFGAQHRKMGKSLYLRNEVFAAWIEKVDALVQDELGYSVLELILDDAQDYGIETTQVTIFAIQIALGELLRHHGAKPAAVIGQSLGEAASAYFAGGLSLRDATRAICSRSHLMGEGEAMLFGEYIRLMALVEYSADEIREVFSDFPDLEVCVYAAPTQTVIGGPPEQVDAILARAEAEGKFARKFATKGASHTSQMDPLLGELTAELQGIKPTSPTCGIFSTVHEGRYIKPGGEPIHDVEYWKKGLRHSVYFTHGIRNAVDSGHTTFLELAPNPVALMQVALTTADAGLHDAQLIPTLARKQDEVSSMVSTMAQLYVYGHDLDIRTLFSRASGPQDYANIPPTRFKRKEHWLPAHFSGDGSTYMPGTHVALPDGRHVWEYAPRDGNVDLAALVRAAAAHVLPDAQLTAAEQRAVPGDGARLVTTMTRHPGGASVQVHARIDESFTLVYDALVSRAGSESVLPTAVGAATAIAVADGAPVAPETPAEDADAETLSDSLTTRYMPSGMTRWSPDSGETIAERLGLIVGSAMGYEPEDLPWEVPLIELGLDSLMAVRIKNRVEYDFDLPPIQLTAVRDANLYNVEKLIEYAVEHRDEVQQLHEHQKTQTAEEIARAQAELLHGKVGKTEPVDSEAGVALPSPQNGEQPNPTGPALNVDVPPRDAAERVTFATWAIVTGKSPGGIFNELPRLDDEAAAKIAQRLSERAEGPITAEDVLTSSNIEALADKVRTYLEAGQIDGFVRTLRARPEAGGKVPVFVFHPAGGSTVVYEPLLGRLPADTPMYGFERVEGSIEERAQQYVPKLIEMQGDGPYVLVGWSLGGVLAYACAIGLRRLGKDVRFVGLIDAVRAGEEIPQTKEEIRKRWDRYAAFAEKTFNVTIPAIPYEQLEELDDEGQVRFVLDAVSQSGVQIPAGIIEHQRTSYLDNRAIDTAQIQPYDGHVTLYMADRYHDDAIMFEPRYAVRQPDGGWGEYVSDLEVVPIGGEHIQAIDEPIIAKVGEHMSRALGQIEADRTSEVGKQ

Measurements from “University of Dundee, Small-Polar-MMV Screening Library” (2021), ChEMBL document CHEMBL3988442.

A: 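Cell assay of Leishmania donovani living inside macrophages; the read-out is not stated. Compounds at 30 µM. The record gives no direction; compounds that gave an IC50 in retests scored well above the rest, so higher reads as stronger inhibition. Size under these conditions: about 69,000 compounds, about 1,000 of them at 50% or above in at least one test.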
B: 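Assay of Toxoplasma gondii numbers, read through their beta-galactosidase reporter with a colour substrate. Compounds at 10 µM. Higher reads as fewer parasites (inferred from which compounds were picked for retests). Size under these conditions: about 67,000 compounds, about 260 of them at 50% or above in at least one test.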
C: 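ClpP1P2, Mycobacterium tuberculosis (UniProt P9WPC5 and UniProt P9WPC3). Protease assay of ClpP1P2, read by the AMC dye that it sets free. Tested at 50 µM. Higher reads as stronger inhibition, judged from the few compounds that gave an IC50. Most other retested compounds had strongly negative values. Of about 69,000 compounds tested this way, about 10 (0.015%) reached 50% or more in at least one test.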
D: 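Whole-parasite assay of Trypanosoma brucei over 72 hours; the read-out is not stated. Compounds at 30 µM. Direction is inferred from retests: higher values go with stronger inhibition. Values scatter widely below zero; nearly all retest evidence comes from the higher of the two concentrations used. Size under these conditions: about 64,000 compounds, about 940 of them at 50% or above in at least one test.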
E: 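Enzyme assay of the thioesterase domain of polyketide synthase 13; the read-out is not stated. Target: Polyketide synthase Pks13, Mycobacterium tuberculosis (UniProt I6X8D2). Concentration: 30 µM. The record gives no direction; the compounds picked for IC50 retests had high values, so higher reads as stronger inhibition. Of about 67,000 compounds tested this way, about 300 (0.46%) reached 50% or more in at least one test.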

Each number is a percent effect as filed. How 0% and 100% were set is not recorded. Most values in the screen are low, and negative values occur. The compounds are a random part of those screened. Two or more numbers in one place are separate tests of the same structure; such repeats can differ widely. A dash means the value is not listed here; it may have been measured.

| compound | A | B | C | D | E |
|---|---|---|---|---|---|
| `CC(=O)N1CCN(c2cc(CCNC(=O)C(C)C)nc(C3CC3)n2)CC1` | 9.347% | -2.7% | 6.907% | 7.628% | 2.517% |
| `[H][C@]12CC[C@]([H])(CN(C(=O)c3cnccn3)C1)N(C(=O)CCc1ccsc1)C2` | 15.9% | -22.55% | - | -15.53% | - |
| `Cc1nsc(NC(=O)N2CCN(Cc3ccc(F)cc3)C(=O)C2)n1` | -23.8% | -0.5515% | -16.87% | -22.88% | -7.825% |
| `COc1cccc2c1ccn2CCNC(=O)CCNc1ncccn1` | 11.26% | -1.78% | -11.66% | -24.01% | -49.41% |
| `N#Cc1cnn(-c2ccc(C(=O)N(C3CCCCC3)C3CC3)cc2)c1N` | -4.808% | 9.048% | -19.76% | - | -18.01% |
| `O=C(N[C@@H]1CN(Cc2ccco2)[C@@H]2CCCO[C@@H]21)c1cscn1` | - | - | -13.49% | - | -0.6808% |
| `Cc1noc(C)c1CN1CCO[C@H]2CN(Cc3cccc(F)c3)C[C@H]21` | - | - | -5.208% | - | - |
| `CN(Cc1cccnc1)Cc1cn2c(n1)CN(C1CCOC1)CC2.O=C(O)C(F)(F)F.O=C(O)C(F)(F)F.O=C(O)C(F)(F)F` (stereo not given) | -4.389% | 25.03% | - | -68.06% | - |
| `COc1ccc(OC)c(C(C)Nc2ncnc3c2NC(=O)CN3)c1` (stereo not given) | 5.044% | -38.44% | -20.12% | 11.53% | 30.44% |
| `CN(Cc1noc2c1CCCC2)C(=O)CN1C(=O)CSc2ccccc21` | -14.04% | 5.33% | 11.01% | - | 5.635% |
| `COc1cc(CN2CCCC[C@]3(C)NC(=O)CC[C@H]23)ccc1F` | - | - | -23.15% | - | 7.953% |
| `[H][C@@]12CCN(C(=O)C3CCCO3)[C@]1([H])CCC(=O)N2Cc1csc(C)n1` (stereo not given in full) | -1.298% | -2.589% | - | -10.39% | - |
| `Cc1ccc2[nH]c(C3CCN(C)CC3)nc2c1` | -21.13% | -25.07% | -5.013% | -44.29% | -15.54% |
| `CC(C)(C(=O)NCCC(=O)O)c1cccc(Br)c1` | 24.21% | 1.418% | -7.251% | 2.417% | -32.85% |
| `O=C1CCCN1CCN1CC=C(c2cnn(C3CCS(=O)(=O)C3)c2)CC1` (stereo not given) | 5.979% | 0.3245% | -7% | -38.08% | -11.84% |
| `CCS(=O)(=O)N1CCC(c2nnc(CN3CCCC3)n2C2CC2)CC1` | 2.612% | -1.542% | -15.97% | 37.11% | -12.78% |
| `Cn1cc(CN2CCS(=O)(=O)C(C)(C)C2)cn1` | 36.08% | -17.49% | -8.658% | -3.064% | -4.062% |
| `CN1CCn2c(-c3ccccc3)cnc2C12CCN(CC1CC1)CC2.O=C(O)C(F)(F)F.O=C(O)C(F)(F)F.O=C(O)C(F)(F)F` | 18.18% | -16.57% | - | - | - |
| `Cc1ncc(C(=O)N2CCCC(n3nc(C)nc3C)C2)c(C(C)C)n1` (stereo not given) | 12.96% | 9.642% | -1.703% | - | -19.98% |
| `Cl.O=C(NCC1CCC2(CCNCC2)O1)C1CC1` (stereo not given) | -3.716% | -10.21% | - | -12.86% | - |
| `COc1cc(F)ccc1N(C)Cc1ccccn1` | 2.918% | 9.256% | -9.214% | 73.53% | -8.48% |
| `CC(C)NC(=O)N1CCC2(COCc3cnc(-c4ccccc4)nc32)C1` (stereo not given) | -12.21% | 5.847% | -6.406% | -35.62% | -26.67% |
| `CCNC(=O)NCCc1csc(N2CCCC2)n1` | 13.66% | 1.628% | 2.55% | -10.34% | 24.87% |
| `COc1cc2[nH]c(=O)c(CN3CCC[C@H]3CO)cc2c(OC)c1OC` | -6.242% | -0.2596% | 3.906% | 1.622% | -39.17% |
| `Cc1nnc([C@@H]2CCO[C@@H]3CCN(C(=O)Cc4ccsc4)C[C@@H]32)o1` | - | - | 6.039% | - | -6.729% |
| `COc1cccc(CNc2c(C)nn(C(C)C)c2C)c1` | - | - | 1.36% | - | -31.22% |
| `CC(=O)N1CCN(Cc2nccs2)CC2(CC(=O)N(C)C2)C1.O=C(O)C(F)(F)F` (stereo not given) | 1.102% | -17.31% | - | -65.77% | - |
| `Cc1cc(C(=O)N2C[C@@H](CN(C)CCN(C)C)[C@@H](CO)C2)nc(C)n1` | 0.2814% | 0.8625% | 13.36% | -66.57% | - |
| `Cc1cc(Nc2ccccn2)nc(C2CCCN(CCO)C2)n1` (stereo not given) | - | - | 6.436% | - | -15.71% |
| `O=C(O)c1ncccc1OCC(F)(F)F` | 7.445% | 3.803% | 4.696% | -19.26% | -27.23% |
| `COc1ccc(OC2CCN(C(=O)C(C)Cn3cccn3)CC2)cc1` (stereo not given) | -16.34% | 5.118% | -22.22% | -20.22% | 9.394% |
| `O=C(CCC(=O)N1CCC(OCc2cccnc2)CC1)c1ccccc1` | -0.6345% | -9.446% | -12.54% | 12.18% | -9.148% |
| `CSc1ccc(CN(CCO)C(=O)CCc2ccc(O)cc2)cc1` | -16.11% | -0.2716% | -12.34% | -5.005% | 16.1% |
| `NCC(=O)N1CCC2(CC1)CN(C(=O)Cc1ccc(Cl)cc1)CCO2` | -4.476% | -10.32% | 6.428% | - | -5.68% |
| `COc1nn(C)c2c1CCCN(C(=O)c1cccn1C)C2` | 18.32% | 17.73% | 12.65% | -22.85% | 5.484% |
| `CCN1CCN(C2CCN(Cc3ncc(C(C)(C)C)o3)CC2)C1=O` | 28.31% | 1.359% | 0.736% | -3.194% | -29.93% |
| `CCS(=O)(=O)N1CCC2(CCN(Cc3nccs3)CC2)CC1` | - | - | 1.173% | - | 10.74% |
| `NC(=O)c1cncc(Oc2cccc(CN3CCCC3)c2Cl)n1` | 24.43% | -6.338% | 11.55% | -5.61% | -30.24% |
| `COc1ncc(CN(C)C2CCN(C(C)C)CC2)cn1` | 31.43% | -4.587% | 15.29% | - | -9.997% |
| `CN1C(=O)CC(C(=O)O)C12CCN(Cc1cc(Cl)ccc1F)CC2` (stereo not given) | 18.44% | -3.549% | 2.918% | -103.1% | 22.57% |
| `CN(C)S(=O)(=O)Nc1ccc(-n2nncc2C(F)(F)F)cc1` | 23.98% | 1.578% | -0.313% | -66.32% | -20.57% |
| `O=C(c1cn(-c2ccccc2Cl)nn1)N1CCSCC1` | -3.853% | 11.43% | 21.47% | - | -22.52% |
| `COCCC1(CNC(=O)NCC2CCCN(C)C2)CCC1` (stereo not given) | -6.151% | -2.436% | 3.583% | -53.61% | -11.34% |
| `Cc1cc(NC(=O)C(C)N2CCN(c3ccc(C#N)cc3F)CC2)no1` (stereo not given) | -10.28% | 2.296% | -13.37% | -13.97% | -21.54% |
| `COc1ccc(CC(=O)N(C)C2CCN(C)C2=O)cc1F` (stereo not given) | 29.26% | 8.471% | -3.084% | -42.5% | -8.58% |
| `CC(C)c1nccn1-c1cncc(C2CCCN(C3CCCC3)C2)n1` (stereo not given) | 6.499% & 9.895% | 14.51% | 13.7% | -16.31% | 9.149% |
| `O=C(O)C(F)(F)F.[H][C@@]12COC[C@]1([H])[C@H](NC(=O)C1CCC1)CN2Cc1csc(C)n1` | 15.73% & 13.03% | 1.016% | - | -54.48% | - |
| `CC(C)(C)SCCCC(=O)N1CCC(Nc2cccnn2)CC1` | 12.03% | 2.585% | 7.985% | -10.94% | -4.724% |
| `COC(=O)CNc1ccc(-c2nc(Cc3ccc(OC)cc3)no2)cn1` | 23.79% | 6.563% | -31.01% | 19.8% | 12.59% |

4 of the entries, repeated:

compound,A,B,C,D,E
COc1nn(C)c2c1CCCN(C(=O)c1cccn1C)C2,18.32%,17.73%,12.65%,-22.85%,5.484%
NCC(=O)N1CCC2(CC1)CN(C(=O)Cc1ccc(Cl)cc1)CCO2,-4.476%,-10.32%,6.428%,-,-5.68%
CN1C(=O)CC(C(=O)O)C12CCN(Cc1cc(Cl)ccc1F)CC2 (stereo not given),18.44%,-3.549%,2.918%,-103.1%,22.57%
COc1cccc(CNc2c(C)nn(C(C)C)c2C)c1,-,-,1.36%,-,-31.22%